Test results taken from article PMC8434012 (Molecules, 2021).
Several values for one entry are separate records, joined by “and”; a condition that tells them apart may be missing. Equal values may be shown once. Where a name gives a salt, the structure may show the parent alone. Read-outs that look alike come from different tables or passages of the source.

How the values were obtained:
[1] = liver S9 fraction, 1 µg/mL donepezil, without/with 1 µg/mL WMP, 30 min, 37 °C, NADPH and UDPGA
[2] = small intestine S9 fraction, 1 µg/mL donepezil, without/with 1 µg/mL WMP, 30 min, 37 °C, NADPH and UDPGA
[3] = cited from earlier work
[4] = Pharmacokinetics of donepezil after oral administration of DNP with and without WMP
[5] = Tissue distribution of donepezil after oral administration of DNP with and without WMP; settings: mouse, in vivo, mice, oral DNP as 10 mg/kg donepezil, without/with WMP 300 mg/kg
[6] = intercompartmental constant, mice, oral DNP as 10 mg/kg donepezil, without/with WMP 300 mg/kg
[7] = mice, oral DNP as 10 mg/kg donepezil, without/with WMP 300 mg/kg
[8] = 10 mg/kg (as donepezil), donepezil concentration in kidney
[9] = 10 mg/kg, donepezil concentration in brain
[10] = 10 mg/kg, donepezil concentration in large intestine
[11] = 10 mg/kg, donepezil concentration in plasma
[12] = 10 mg/kg, donepezil concentration in small intestine
[13] = 10 mg/kg, donepezil concentration in stomach

COc1cc2c(cc1OC)C(=O)C(CC1CCN(Cc3ccccc3)CC1)C2 (stereo not shown) [DNP, Donepezil hydrochloride]
disappeared percentage of donepezil [1]: 54.7 ± 12.8% | disappeared percentage of donepezil ([1]; listed as donepezil): 54.7% | disappeared percentage of donepezil [2]: 14.9 ± 4.73% | donepezil's metabolites excreted into urine ([3]; rat, in vivo, po): 35.4% | Tmax ([3]; rats, oral [14C]donepezil): 30 min | systemic bioavailability ([3]; rats, oral [14C]donepezil): approximately 86.8% | ka of donepezil ([4]; first-order absorption rate constant, mice, oral DNP as 10 mg/kg donepezil, without/with WMP 300 mg/kg): 0.071 ± 0.031 min⁻¹ | k12 of donepezil [4, 6]: 0.014 ± 0.010 min⁻¹ | k21 of donepezil [4, 6]: 0.0087 ± 0.0058 min⁻¹ | Ae0–24 h, donepezil excreted into urine for 24 h [4, 7]: 1.65 % of dose and 1.65 ± 0.35 % of dose | GI24 h, unabsorbed and/or biliary excreted donepezil at 24 h [4, 7]: 0.0361 % of dose and 0.036 ± 0.02 % of dose | AUC(0-t) ([4]; mouse, in vivo, po, 10 mg/kg): 270 ng·h/mL | Cmax ([4]; mouse, in vivo, po, 10 mg/kg): 240 ± 120 ng/mL | Tmax ([4]; mouse, in vivo, po, 10 mg/kg): 15 min | Vp/F of donepezil ([4]; two-compartment model, mice, oral DNP as 10 mg/kg donepezil, without/with WMP 300 mg/kg): 4.16044 ± 0.59225 L/kg | concentration at 1 h [5, 8]: 10300 ± 6550 ng/g | concentration at 4 h [5, 8]: 960 ± 170 ng/g | concentration at 1 h ([5]; 10 mg/kg (as donepezil), donepezil concentration in liver): 15100 ± 2230 ng/g | concentration at 1 h [5, 9]: 2170 ± 1210 ng/g | concentration at 4 h [5, 9]: 220 ± 80 ng/g | concentration at 1 h [5, 10]: 15300 ± 5500 ng/g | concentration at 4 h [5, 10]: 2390 ± 620 ng/g | concentration at 1 h [5, 11]: 100 ± 50 ng/mL | concentration at 4 h [5, 11]: 20 ± 10 ng/mL | concentration at 1 h [5, 12]: 15800 ± 7930 ng/g | concentration at 4 h [5, 12]: 3330 ± 1540 ng/g | concentration at 1 h [5, 13]: 23600 ± 5790 ng/g | concentration at 4 h [5, 13]: 3350 ± 1530 ng/g
